Data published in publication PMC8719587.
Results are given in words; binding and its absence hold for the method and conditions named. Binding can be weak; no strength is given. Sequences can lack the tags named with a protein. For part of these data: Binding seen in cells or lysates may run through a third protein. Each block holds one binder with its values, some of them ahead of it.

What was measured:
[1] = target: GST-GmLMM1^ECD fusion protein (GmLMM1 extracellular domain, residues 27 to 452) (soybean (Glycine max)) (UniProt I1LWU2); test: pull-down; GST-GmLMM1^ECD mixed with RALF and glutathione agarose beads in GST-binding buffer (20 mM HEPES, 40 mM KCl, 1 mM EDTA, pH 7.5), 4°C overnight; eluted with glutathione; immunoblot with anti-GST and anti-His; both purified
[2] = target: GmLMM1-HA (HA-labeled GmLMM1 in transgenic plants) (soybean (Glycine max)); test: co-IP; protein extract of 7-day GmLMM1-HA transgenic plants in NEBT buffer incubated with 1 μM RALF peptide from E. coli; precipitated with HA beads overnight at 4°C; immunoblot with anti-HA and anti-His; only the binder purified

binding [1]: no binding
B1: AtRALF1 peptide, bioactive form (amino acids 72-120), with 6 x His-MBP tag (ligand, UniProt Q9SRY3 72-120)
chain: ATTKYISYQSLKRNSVPCSRRGASYYNCQNGAQANPYSRGCSKIARCRS

binding [1]: binds
binding [2]: binds
B2: AtRALF23 peptide, bioactive form (amino acids 89-138), with 6 x His-MBP tag (ligand, UniProt Q9LUS7 89-138)
chain: ATRRYISYGALRRNTIPCSRRGASYYNCRRGAQANPYSRGCSAITRCRRS
